The values below come from PMC7819943, “Rice protein-binding microarrays: a tool to detect cis-acting elements near promoter regions in rice”.

Sequences of proteins named here, by UniProt entry; tags and fusion partners are left off.
UniProt Q0JBA9, entry or part of it: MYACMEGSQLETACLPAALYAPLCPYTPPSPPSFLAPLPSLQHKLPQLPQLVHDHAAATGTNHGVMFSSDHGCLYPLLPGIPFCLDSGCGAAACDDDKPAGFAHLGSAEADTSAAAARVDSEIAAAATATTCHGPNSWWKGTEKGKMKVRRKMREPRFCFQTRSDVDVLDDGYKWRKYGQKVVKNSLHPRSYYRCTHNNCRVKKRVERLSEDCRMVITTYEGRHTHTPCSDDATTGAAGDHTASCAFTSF

This is one part of the list.

For this experiment, the target named is OsWRKY34 (Oryza sativa, UniProt Q0JBA9 1-250). Put plainly: protein-binding microarray (RPBM); PBS, 2% BSA, 51.3 ng/ul salmon testes DNA, 50 uM zinc acetate, 200 nM TF, 25 C, 1 h; high values mean tight binding. Conditions: protein: recombinant; tags: N-terminal polyhistidine and DsRed monomer fusion (pET32a); label: CyDye5-dUTP incorporated in the synthesized complementary strand; 3' TTTTT single-stranded linker to array surface; dsDNA, one strand shown. The procedure, abridged: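 Using Ni–NTA, transcription factors fused N-terminally to polyhistidine and DsRed were purified after expression in E. coli BL21-CodonPlus. These were incubated at 200 nM with a blocked, double-stranded custom Agilent array for 1 h at 25 °C in a buffer containing 50 µM zinc acetate, and the array was washed. The binding signal is per-feature fluorescence intensity (arbitrary units) on an Axon 4000B scanner.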
For “TTCTTTTTTTTTTATCTCTATTGCCTGGACTCTTCAAGTGCGGAGTCACCTAGTGCAG”, the binding signal is 9400 fluorescence intensity (a.u.).

In the case of “GTGTAACTTTTGGTTTTTATGCTTCCTGTAGGTCACAGTTCGGAGTCACCTAGTGCAG”, the binding signal was 8530 fluorescence intensity (a.u.).

For the sequence “CGTGGCTTATGTATTCTAGTGGATTTTGCTTCTAGCCTACCGGAGTCACCTAGTGCAG”, the binding signal was 9180 fluorescence intensity (a.u.).

Take “ACTAGTATTTCTCTCTCTCTCTCTTTTTTTTCTGCGATGACGGAGTCACCTAGTGCAG”: the binding signal was 9230 fluorescence intensity (a.u.).

For the sequence “TGTTTTTTTTCCTCTTTCGCTTGATTGTCCTATTGGATTTCGGAGTCACCTAGTGCAG”, the binding signal was 8720 fluorescence intensity (a.u.).

For “ACGCCGTTGATTTTTTTAAGCGTATTTGATCGTTCGTCTTCGGAGTCACCTAGTGCAG”, the binding signal is 8580 fluorescence intensity (a.u.).

As to “TCTGTCTCCAACTCCTCGCCATGTCGTGTCGGCTGCTGTCCGGAGTCACCTAGTGCAG”, the binding signal is 8780 fluorescence intensity (a.u.).

In the case of “TCTTGCAGCCTTCCCTGTTGACGCGGTTGATGTTCTTCTACGGAGTCACCTAGTGCAG”, the binding signal is 8280 fluorescence intensity (a.u.).

Turning to “TCCAATTTCATCCAACTCAGCTATAGCTTTCTTTGCACCTCGGAGTCACCTAGTGCAG”, the binding signal is 11000 fluorescence intensity (a.u.).

As to “CATTGCCGTTAACTTCTTCACGTTCACAACTCACTGGGGTCGGAGTCACCTAGTGCAG”, the binding signal was 9020 fluorescence intensity (a.u.).

Regarding “GTAGGTTGGTTTTTTATGGGACGGAGGGAGTAGCCATTTACGGAGTCACCTAGTGCAG”, the binding signal was 10200 fluorescence intensity (a.u.).

For “ATTGATAGTCCCATTTTTCTGTGTATATAATCGACTAACTCGGAGTCACCTAGTGCAG”, the binding signal is 8020 fluorescence intensity (a.u.).

As to “GTCGTTGATTTTTTTAAAAATGTTTAACCGTTCGTTTTATCGGAGTCACCTAGTGCAG”, the binding signal was 8170 fluorescence intensity (a.u.).

Take “GGTTATACGAACCACACAAGCATCCAGCATGCAGTTCATCCGGAGTCACCTAGTGCAG”: the binding signal is 8780 fluorescence intensity (a.u.).

With “ATAGCTCTCGGCGAGGAGGTTTTGGTGGTGGTGGGAGATGCGGAGTCACCTAGTGCAG”, the binding signal was 8690 fluorescence intensity (a.u.).

For “CTCACTTGCATCTTTCCAATATCTTAGTCATTCATTAATACGGAGTCACCTAGTGCAG”, the binding signal is 8520 fluorescence intensity (a.u.).

On to “AGGAATGGACATCTACTCACTGTCACCACAGCTCACGAGACGGAGTCACCTAGTGCAG”, for which the binding signal is 8050 fluorescence intensity (a.u.).

In the case of “TCCGAACAGATATTTTTGTGGTTCATTGCTATGGATTTCTCGGAGTCACCTAGTGCAG”, the binding signal was 8190 fluorescence intensity (a.u.).

On to “ACGTCCGGCTTTTGCATCTTCCTCGGCGACTCCCTCATCTCGGAGTCACCTAGTGCAG”, for which the binding signal was 8660 fluorescence intensity (a.u.).

As to “TCACGCTCATCCTCTTCCTCATCTCTCTTTGCGGTCTTTACGGAGTCACCTAGTGCAG”, the binding signal was 11000 fluorescence intensity (a.u.).

Turning to “CCACTAAAATTTTTATCCCTTGATAGCTTATAGTTTACTACGGAGTCACCTAGTGCAG”, the binding signal was 8150 fluorescence intensity (a.u.).

In the case of “GTACTTCACCTCGTTTGTCCTCTTGCATAGCGATTTCTTTCGGAGTCACCTAGTGCAG”, the binding signal is 11900 fluorescence intensity (a.u.).

As for “ATAATCCTGAGACTAATCCAACCTGCACGCACGCACTACTCGGAGTCACCTAGTGCAG”, the binding signal was 8290 fluorescence intensity (a.u.).

Consider “ACCTCGTTTTGCGTATCTTTCCAATCTTCTCTATCTCCTTCGGAGTCACCTAGTGCAG”, for which the binding signal is 8630 fluorescence intensity (a.u.).

With “CGGGAAGGGGAGAGGCCGTGTCGGGGAGGATAGTGGCGGCCGGAGTCACCTAGTGCAG”, the binding signal is 9590 fluorescence intensity (a.u.).

“AGTACATCATTTCCCATTACATGTGGAGTCTCTGTCTCTGCGGAGTCACCTAGTGCAG”: the binding signal was 8230 fluorescence intensity (a.u.).

Turning to “CACTGCTTTGGAACCATACTACGGCTTCTCCCACTTCACTCGGAGTCACCTAGTGCAG”, the binding signal was 8110 fluorescence intensity (a.u.).

With “GACACATCTTAGTTTCATGAATTTGCACAAGAATTGCATGCGGAGTCACCTAGTGCAG”, the binding signal is 10800 fluorescence intensity (a.u.).

In the case of “CACACTCTCACTGTCCACGCTTGTCTTGGCCGCTTGACTACGGAGTCACCTAGTGCAG”, the binding signal was 8280 fluorescence intensity (a.u.).

Take “AATTTTTGGCAGTATATGAGCTAGATTCATATGTACATCACGGAGTCACCTAGTGCAG”: the binding signal is 8180 fluorescence intensity (a.u.).

Consider “AAACTTTGACTTACTTAAAACAAGTCCAAAACTGCATGTCCGGAGTCACCTAGTGCAG”, for which the binding signal is 8050 fluorescence intensity (a.u.).

For “GATCAGGTGGGTTGGGTTGGACCCAGAAGGGAATATTCTCCGGAGTCACCTAGTGCAG”, the binding signal is 9720 fluorescence intensity (a.u.).

With “TCCCTCCATCCCAAAATGTTATCTTTGACGTCGTTGACTTCGGAGTCACCTAGTGCAG”, the binding signal is 10900 fluorescence intensity (a.u.).

As for “ACCCACGACTCCGCAACTCTAGCTCGGCCCCGCGTCCCGCCGGAGTCACCTAGTGCAG”, the binding signal was 8260 fluorescence intensity (a.u.).

“TGCTACAGTTAGTTTGTCTTTGTACTATCTCATGGTTTATCGGAGTCACCTAGTGCAG”: the binding signal was 11600 fluorescence intensity (a.u.).

Consider “CCACAAATTAATCCCGCATGCTCTTGGCATTTACCCACCACGGAGTCACCTAGTGCAG”, for which the binding signal was 8460 fluorescence intensity (a.u.).

On to “CCTCCTCCGCCGCCCGCCGCGTCCGCCACTTCCATCGGAGCGGAGTCACCTAGTGCAG”, for which the binding signal was 8030 fluorescence intensity (a.u.).

As for “TTTTTGCTGTTTTTAATGTAACTTTTTTCGAGAACATACCCGGAGTCACCTAGTGCAG”, the binding signal is 11100 fluorescence intensity (a.u.).

For “CCACCTTCGCCGCCACCACCAAGCACATCGCCGTCCTCCACGGAGTCACCTAGTGCAG”, the binding signal was 8160 fluorescence intensity (a.u.).

As for “GCACCGTGGGGACTGGGGATTGCCGATTCTTTTTTTTCCTCGGAGTCACCTAGTGCAG”, the binding signal is 10800 fluorescence intensity (a.u.).

In the case of “GCTCCGTTAATTTTCGAAAGTTTGAATTTGATCAGGTAACCGGAGTCACCTAGTGCAG”, the binding signal is 8180 fluorescence intensity (a.u.).

In the case of “ATTACCAAAAATCTCAACTTACATGCTGCGTACTCCATTTCGGAGTCACCTAGTGCAG”, the binding signal is 8590 fluorescence intensity (a.u.).
